According to US9381171B2 (priority 2013, dated 2016):
At least one structure is not confirmed: it was looked up by name or label, or the drawing left a doubt.

Tests used:
[1] = system: phosphorylated FOXO1-p (Ser256); experiment: Factors of atrophy: western blot of FOXO1-p in C2C12 cells (FIG. 4); assay type: cell-based, mouse; conditions: C2C12, 1 μM dexamethasone alone, 2 hours, vs control
Description: (§1) A C2C12 cell line (mouse gastrocnemius muscle, ATCC®CRL-1772™) was inoculated in a 10% FBS/DMEM culture medium in a 60 mm culture dish. When the cells were grown to about 70% confluency in a 5% CO2 incubator at a temperature of 37° C., the culture medium was changed to a 2% FBS/DMEM culture medium to allow complete differentiation after incubation for 4 days. The C2C12 cell line is a mouse myoblast cell line obtained through continuous culture of myoblasts that are cultured from the gastrocnemius muscle of C3H mice. […] Here, 1 μM of dexamethasone was added thereto and cultured together for 2 hours as described above.
(§2) After the medium was removed from the culture and the cells were collected therefrom, 500 μl of an RIPA lysis buffer (including 20 mM Tris-HCl (pH 7.5), 150 mM NaCl, 1 mM Na2EDTA, 1 mM EGTA, 1% NP-40, 1% sodium deoxycholate, 2.5 mM sodium pyrophosphate, 1 mM beta-glycerophosphate, 1 mM Na3VO4, and 1 μg/ml leupeptin) was added for lysing the cells. […]

[2] = system: phosphorylated Akt-p (Ser473); experiment: Factors of atrophy: western blot of Akt-p in C2C12 cells (FIG. 4); assay type: cell-based, mouse; conditions: C2C12, 1 μM dexamethasone alone, 2 hours, vs control
Description: as §1, §2

In the case of `C[C@@H]1C[C@H]2[C@@H]3CCC4=CC(=O)C=C[C@]4(C)[C@@]3(F)[C@@H](O)C[C@]2(C)[C@@]1(O)C(=O)CO` [dexamethasone], the “amount of the FOXO1-p” value [1] is reported as “increased” and the “amount of the Akt-p” value [2] is reported as “decreased”.
